Record: PubChem BioAssay AID652243 (Drosophila RNAi Screening Center, 2013)

- Aim: 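Fly regulators of androgen-dependent reporter output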 (primary screen)
- Cells: Drosophila S2R+ cells
- Knock-down reagent: long dsRNA against Drosophila genes
- Timing: 72 h (48 h, then 24 h hormone)
- Conditions: synthetic androgen R1881 at 10 nM for 24 h
- Measured: 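Per-well raw luminescence of the androgen-driven firefly reporter and of the Renilla control, two replicates each, without normalisation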
- Reading the numbers: firefly reporter light: higher = more light from androgen-responsive reporter; Renilla control light: higher = more constitutive control signal (cell number, transfection)
- Call rule: 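Across duplicate plates, a knock-down whose log firefly/Renilla ratio shifted a set fold down or up from the GFP/LacZ control mean was a hit; the downward cut appears as both 1.5 and 3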
- Meaning of the calls: active = hit: reporter lowered or raised; inactive = no hit
The deposit covers about 24,000 reagents; this is a random part of those that have a named target and a result. Of all reagents, 246 (1%) got an active call. 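Plates not normalised; calls are printed but the firefly/Renilla ratio behind them is not deposited; fold cut for lowering reported inconsistently.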 Raw values are not corrected between plates. Not given: the amount of reagent.

| gene | amplicon | firefly reporter light, replicate 1 | firefly reporter light, replicate 2 | Renilla control light, replicate 1 | Renilla control light, replicate 2 | call |
| --- | --- | --- | --- | --- | --- | --- |
| Vps13D | DRSC09818 | 2.07e5 | 2.08e5 | 1.13e6 | 1.12e6 | inactive |
| Vps13D | DRSC09819 | 2.03e5 | 2.11e5 | 1.54e6 | 1.21e6 | inactive |
| CG34115 | DRSC38621 | 5.52e5 | 5.48e5 | 1.79e6 | 1.30e6 | inactive |
| yellow-d2 | DRSC04591 | 3.29e5 | 3.20e5 | 1.61e6 | 1.17e6 | inactive |
| alpha-Est2 | DRSC12614 | 1.15e5 | 1.55e5 | 2.77e6 | 2.51e6 | inactive |
| CG42566 | DRSC03949 | 6.78e5 | 6.13e5 | 1.29e6 | 1.09e6 | inactive |
| CG42266 | DRSC21577 | 8.19e5 | 8.79e5 | 2.31e6 | 2.45e6 | inactive |
| CG42266 | DRSC21957 | 8.74e5 | 1.06e6 | 1.54e6 | 1.90e6 | inactive |
| CG42266 | DRSC29782 | 6.63e5 | 3.65e5 | 1.71e6 | 1.36e6 | inactive |
| CG42266 | DRSC39089 | 2.77e5 | 2.47e5 | 1.22e6 | 1.27e6 | inactive |
| mRpL49 | DRSC19908 | 5.55e5 | 5.36e5 | 3.66e6 | 3.97e6 | inactive |
| Tcs3 | DRSC10461 | 2.43e5 | 1.58e5 | 2.66e6 | 1.12e6 | inactive |
| Tcs3 | DRSC29969 | 4.31e5 | 3.17e5 | 1.09e6 | 9.61e5 | inactive |
| Os-C | DRSC16778 | 62551 | 93905 | 1.83e6 | 1.56e6 | inactive |
| Os-C | DRSC27993 | 7.74e5 | 4.51e5 | 1.38e6 | 1.00e6 | inactive |

3 successive entries already listed, quoted:
| gene | amplicon | firefly reporter light, replicate 1 | firefly reporter light, replicate 2 | Renilla control light, replicate 1 | Renilla control light, replicate 2 | call |
| --- | --- | --- | --- | --- | --- | --- |
| CG42266 | DRSC21957 | 8.74e5 | 1.06e6 | 1.54e6 | 1.90e6 | inactive |
| CG42266 | DRSC29782 | 6.63e5 | 3.65e5 | 1.71e6 | 1.36e6 | inactive |
| CG42266 | DRSC39089 | 2.77e5 | 2.47e5 | 1.22e6 | 1.27e6 | inactive |

The listing continues.
| gene | amplicon | firefly reporter light, replicate 1 | firefly reporter light, replicate 2 | Renilla control light, replicate 1 | Renilla control light, replicate 2 | call |
| --- | --- | --- | --- | --- | --- | --- |
| CG6739 | DRSC02987 | 1.89e5 | 1.34e5 | 1.39e6 | 1.15e6 | inactive |
| CG16734 | DRSC15143 | 1.75e5 | 2.08e5 | 2.79e6 | 4.02e6 | inactive |
| CG30373 | DRSC05081 | 2.65e5 | 3.06e5 | 7.68e5 | 6.06e5 | inactive |
| CG30373 | DRSC29668 | 2.76e5 | 4.51e5 | 8.58e5 | 8.58e5 | inactive |
| CG6013 | DRSC15947 | 52586 | 63658 | 9.42e5 | 1.04e6 | active |
| CG6013 | DRSC29573 | 2.67e5 | 4.31e5 | 4.20e5 | 4.20e5 | inactive |
| Twdlbeta | DRSC07310 | 2.24e5 | 2.55e5 | 1.55e6 | 1.68e6 | inactive |
| Twdlbeta | DRSC25646 | 7.49e5 | 8.05e5 | 1.01e6 | 1.22e6 | inactive |
| YME1L | DRSC04378 | 4.34e5 | 5.33e5 | 7.02e5 | 5.23e5 | inactive |
| CG3078 | DRSC18531 | 9450 | 11988 | 2.89e5 | 2.40e5 | inactive |
| CG3078 | DRSC23471 | 7.23e5 | 4.43e5 | 5.10e5 | 5.21e5 | inactive |
| CG3078 | DRSC38979 | 1.11e6 | 6.45e5 | 1.72e6 | 1.50e6 | inactive |
| Jon99Ci | DRSC16860 | 1.66e5 | 1.53e5 | 2.18e6 | 2.31e6 | inactive |
| Jon99Ci | DRSC28041 | 4.75e5 | 5.33e5 | 1.70e6 | 1.33e6 | inactive |
| otp | DRSC04050 | 3.68e5 | 4.87e5 | 9.30e5 | 9.91e5 | inactive |
| otp | DRSC04707 | 35144 | 55771 | 3.40e5 | 3.45e5 | inactive |
| CG17974 | DRSC04299 | 2.92e5 | 3.17e5 | 2.55e6 | 2.41e6 | inactive |
| CG34325 | DRSC19802 | 5.40e5 | 5.18e5 | 3.73e6 | 4.17e6 | inactive |
| CG34325 | DRSC20200 | 6.14e5 | 5.61e5 | 3.93e6 | 3.95e6 | inactive |
| Hrs | DRSC00549 | 7.62e5 | 5.34e5 | 4.27e6 | 2.46e6 | active |
| Hrs | DRSC27741 | 2.45e5 | 2.02e5 | 3.02e5 | 4.94e5 | inactive |
| CG2100 | DRSC12303 | 66807 | 1.28e5 | 5.95e5 | 6.99e5 | inactive |
| Schip1 | DRSC02851 | 2.73e5 | 3.01e5 | 1.63e6 | 1.15e6 | inactive |
| Schip1 | DRSC28775 | 7.02e5 | 9.16e5 | 1.20e6 | 1.25e6 | inactive |
| fws | DRSC02969 | 8.56e5 | 1.35e6 | 1.21e6 | 1.69e6 | inactive |
| fws | DRSC29678 | 1.96e5 | 2.38e5 | 5.73e5 | 5.73e5 | inactive |
